US20060167115A1, “Compositions for the preservation of timber” (priority 2003, published 2006)
Some results were stated once for a whole list of compounds, not compound by compound. Some ranges recur; such a range may be that of the whole group of compounds.

Assays:
Coniophora puteana = test: Biological screening test (modified EN 113) of TBBA homologues; type: cell-based; details: waterborne; 8 weeks exposure
Experimental: (§1) The following fungi were employed: Coniophora puteana (Brown rot fungus) and Poria placenta (Brown rot fungus). The following preservatives were tested: TBBF (waterborne), TBBE (waterborne), TBBZ (waterborne) and TBBS (waterborne).
(§2) Five concentrations of each preservative were tested: 3.0%, 2.0%, 1.0%, 0.1% and 0.05% (w/w). All wood blocks were of Scots pine sapwood (Pinus sylvestris) with a volume of 1 cm^3 (10 mm×10 mm×10 mm). Five replicates were used for each test specimen type and six virulence control specimens for each fungus and for each preservative were used as follows: • Treated test specimens: 2 (fungi)×5 (preservative concentrations)×1 (preservative)×5 (replicates)=50 test blocks • Untreated test specimens (for exposure alongside […] test blocks): 2 (fungi)×5 (preservative concentrations)×1 (preservative)×5 (replicates)=50 test blocks • Treated check test specimens: 1 (preservative)×5 (concentrations)×5 (replicates)=25 blocks
(§3) For all actives/preservatives in the test: • Virulence control specimens: 2 (fungi)×6 (replicates)=12 test blocks
(§4) After block treatments were completed, all the blocks were sterilized using ionizing radiation according to the conditions set out in European standard EN 113. The incubation period for the test (length of block exposure to the chosen basidiomycete fungi) was 8 weeks. […]

Poria placenta = test: as above; type: cell-based; details: waterborne; 8 weeks exposure
Experimental: as §1, §2, §3, §4

## CC(c1cc(Br)c(O)c(Br)c1)c1cc(Br)c(O)c(Br)c1 [TBBE, 4,4′-Ethylidenebis(2,6-dibromophenol)]
Coniophora puteana
  Protective Effect (concentration of the active ingredient in solution): 0.1-1.0%
Poria placenta
  Protective Effect (concentration of the active ingredient in solution): 0.1-1.0%
